Hit rate of the full screen: of about 400,000 compounds, about 13,000 (3.2%) were called active. Inconclusive means that the source gave no clear call. Such entries were picked first, then a sample of the others. Calls follow the shape of the dose curve; as a rule, active = well fitted cell-killing curve with a large enough effect; inconclusive = small, poorly fitted or top-dose-only effect, or effect the other way; inactive = flat fitted curve, though single readings scatter. Potencies of inconclusive entries are doubtful fits and often do not repeat.
Test: qHTS assay for MDR1-selective chemotherapeutics: Primary screen using the drug-selected MDR subline cells KB-V1; also: nearly all actives have a fitted effect of over 60% in size
Settings: KB-V1 MDR cells viability, CellTiter-Glo, 72 h; series mostly up to 46.1 µM
Method in brief: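 Compound-treated KB-V1 multidrug-resistant cells, 72 h, 37 degrees C; viability by CellTiter-Glo. Fitted qHTS curves give the values.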
Potency is read from the fitted curve at half-maximal effect.

Row | Structure (SMILES) | Potency
1 | COc1ccc(-n2cccc2C=O)cc1 | inconclusive: 23.1 µM [rising, single point]
2 | CCOc1ccc(CCNS(=O)(=O)c2cccc3nsnc23)cc1OCC | inconclusive: 18.4 µM [cytotoxic, single point]
3 | O=C(CCCn1c(=O)oc2ccccc21)N1CCN(c2ccccn2)CC1 | inconclusive: 11.6 µM [cytotoxic, partial curve]
4 | COc1ccc(-n2nc([N+](=O)[O-])c(=NCCCN3CCCC3=O)n2O)cc1 | inactive
5 | CC1(C)CC(=O)C(C=NCCC2=CCCCC2)=C(O)C1 | inconclusive: 18.4 µM [cytotoxic, single point]
6 | COc1ccc(C)cc1Nc1nc(C)nc2sc(C)cc12 | inconclusive: 23.1 µM [cytotoxic, single point]
7 | O=C(NCc1cccc(Br)c1)C1CC(c2ccccc2C(F)(F)F)=NO1 (stereo unspecified) | inconclusive: 32.6 µM [cytotoxic, single point]
8 | O=S(=O)(Nc1ccc(F)cc1Cl)c1ccc(-c2cnc(C3CC3)o2)cc1 | active: 1.46 µM
9 | O=C(Cc1ccc(F)cc1)Nc1ccc(S(=O)(=O)N2CCCCC2)cc1 | inconclusive: 23.1 µM [cytotoxic, single point]
10 | CC(=O)Nc1c(C)nn(-c2ccc([N+](=O)[O-])cc2)c1C | inconclusive: 32.6 µM [rising, single point]
11 | Cc1[nH][nH]c(=O)c1C(c1c(C)[nH][nH]c1=O)c1cn(Cc2cccc3ccccc23)c2ccccc12 | active: 20.6 µM
12 | CN(C(=O)c1cccc(NC(=O)Cc2ccc(NC(=O)C3CCCN(C(=O)C4CCCCC4)C3)cc2)c1)C1CCC1 (stereo unspecified) | inconclusive: 29.1 µM [rising, single point]
13 | Cc1ccc2[nH]c(=O)c3cc(C(=O)N(C)Cc4ccco4)sc3c2c1 | inconclusive: 29.1 µM [cytotoxic, single point]
14 | CC(C)=CCC/C(C)=C/COc1ccc2ccc(=O)oc2c1 | inconclusive: 20.6 µM [rising, single point]
15 | COc1ccc(N=C2S/C(=C\c3ccco3)C(=O)N2CC(C)C)cc1 | inactive
16 | CN(C1=C(N2CCOCC2)C(=O)c2ccccc2C1=O)c1ccccc1 | active: 11.6 µM
17 | Cc1ccc(/C=C/C(=O)Nc2sc3c(c2C#N)CCCC3)o1 | inactive
18 | CCOC(=O)c1c(C)nc2c(c1-c1cc(OC)ccc1OC)C(=O)CC(C)(C)C2 | inconclusive: 11.6 µM [cytotoxic, partial curve, poor fit]
19 | COC(=O)c1c(NC(=O)c2ccc(C)c(S(=O)(=O)Nc3ccccc3C)c2)sc2c1CCCC2 | active: 23.1 µM
20 | COc1ccc(NC(=O)C2Cc3c(-c4cccc(NC(C)=O)c4)ccnc3O2)cc1 (stereo unspecified) | inconclusive: 23.1 µM [cytotoxic, single point]
21 | COCC(=O)N(C)[C@H]1C[C@H]2c3cc(N4CCN(C)CC4)ccc3CCN2C(=O)[C@H]1[C@H](C)O | inconclusive: 10.3 µM [rising, single point]
22 | O=C(CN1C(=O)c2ccccc2C1=O)N1CCN=C1c1ccccc1 | inconclusive: 8.2 µM [rising, partial curve, poor fit]
23 | CCOC(=O)c1[nH]c2c(c1Cc1ccccc1OC)C(=O)CC(c1ccc(OCC)cc1)C2 (stereo unspecified) | inactive

Row | Structure (SMILES) | Potency
24 | COc1ccc2cc(-c3[nH]ncc3CN3CCCN(c4ccccc4)CC3)ccc2c1 | inconclusive: 29.1 µM [cytotoxic, partial curve, poor fit]
25 | CN(C)c1cnn(-c2ccccc2)c(=O)c1Cl | inactive
26 | COc1cc(NC(=O)Cn2nc(-c3ccc(C)c(C)c3)ccc2=O)cc(OC)c1 | inactive
27 | CCOC(=O)c1c(C)oc2nc(C)nc(NCCc3ccc(SC)cc3)c12 | inactive
28 | Cc1nc(CC(=O)Nc2nc(C(C)(C)C)cs2)cs1 | inactive
29 | CCOCCn1c(CN2CCOCC2)nc2c1c(=O)[nH]c(=O)n2C | inconclusive: 0.58 µM [rising, full curve, poor fit]
30 | CS(=O)(=O)N(CC(=O)N/N=C/c1ccccc1C(=O)O)c1cccc(Cl)c1Cl | inactive
31 | O=c1[nH]c(CSc2nc3ccccc3o2)nc2c1cnn2-c1ccccc1 | inactive
32 | COc1ccc(C2=CC(c3cccc(C)c3)n3nnnc3N2)cc1 (stereo unspecified) | inactive
33 | CC(C)c1ccc(NC(=O)N2CCc3ccccc3C2)cc1 | inactive
34 | O=C(Nc1c(Br)cc2c(c1Br)Cc1cc([N+](=O)[O-])ccc1-2)C(Cl)Cl | inconclusive: 5.8 µM [cytotoxic, full curve]
35 | Cc1ccc(N2C(=O)CCSC23C(=O)Nc2ccccc23)cc1 (stereo unspecified) | inconclusive: 23.1 µM [cytotoxic, single point]
36 | Fc1cc(Br)ccc1NC(=S)Nc1ccccc1 | active: 14.6 µM
37 | COc1ccc(OCCCC(=O)Nc2ccc3c(c2)OCCO3)cc1 | inconclusive: 18.4 µM [cytotoxic, single point]
38 | CCN(CC)S(=O)(=O)c1nnc(NC(=O)c2ccc(C(C)C)cc2)s1 | inactive
39 | C=CC(=O)NC(NC(=O)C=C)c1ccc(Br)cc1 | inconclusive: 14.6 µM [cytotoxic, partial curve, poor fit]
40 | CCCCCCCC(=O)NNC(=O)c1ccc(F)cc1 | inactive
41 | C[C@H]1COC(=O)[C@@H](CC(=O)OC(C)(C)C)C/C=C\C[C@H](CC(=O)NCCO)C(=O)N1 | inconclusive: 29.1 µM [rising, single point]
42 | c1ccc(Cn2nnnc2C(c2cccnc2)N2CCN(C3CCCCC3)CC2)cc1 (stereo unspecified) | inconclusive: 10.3 µM [cytotoxic, partial curve, poor fit]
43 | Cc1cc2c(cc1C)-n1nnnc1C(N1CCN(C(=O)OCc3ccccc3)CC1)C(=O)N2 (stereo unspecified) | active: 18.4 µM
44 | CC(O)[C@H]1CC[C@H]2[C@@H]3CC[C@H]4C[C@@H](O)CC[C@]4(C)[C@H]3C(=O)C[C@]12C (stereo partly specified) | inactive
45 | Cc1ccccc1NC(=S)Nn1cnnc1 | inactive
46 | CCOC(=O)C1=CN(Cc2cccc(F)c2)S(=O)(=O)NC1c1ccc2ccccc2c1 (stereo unspecified) | inconclusive: 32.6 µM [cytotoxic, single point]

Structural class: those above with a tert-butyl group.
Row | Structure (SMILES) | Potency
28 | Cc1nc(CC(=O)Nc2nc(C(C)(C)C)cs2)cs1 | inactive
41 | C[C@H]1COC(=O)[C@@H](CC(=O)OC(C)(C)C)C/C=C\C[C@H](CC(=O)NCCO)C(=O)N1 | inconclusive: 29.1 µM [rising, single point]

Source: PubChem BioAssay AID1347076 (National Center for Advancing Translational Sciences (NCATS), 2019)
